From the supplement of paper PMC10735217
Where a name gives a salt, the structure may show the parent alone. Some of the results follow. This data set is noisy: repeats of one test often differ as much as different tests do.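 The human kidney-derived cells carry a stably integrated construct of eight TEAD-binding elements driving luciferase, read by luminescence in a drug-repurposing library screen. A compound counts as a hit when its signal is more than five robust Z scores above the plate mean.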

Test system: HEK293A TEAD-LUC reporter
Test: TEAD-luciferase reporter activity (YAP activation), robust Z score vs plate; higher = stronger YAP/TEAD activation
Conditions: 24 h

SMILES | TEAD-luciferase reporter activity (compound concentration: 200 nM) | TEAD-luciferase reporter activity (compound concentration: 2 uM) | TEAD-luciferase reporter activity (compound concentration: 10 uM)
C/C(=C/C=C/C(C)=C/C(=O)O)c1cc(C(C)(C)C)cc(C(C)(C)C)c1OCC(F)F | inactive: -2.29 | inactive: -0.656 | inactive: 0.693
CCOC(=O)CCN[N+](C)(C)CC | inactive: 2.34 | inactive: -0.194 | inactive: 1.33
O=C(c1cc(Cl)cc2nc(N3CCN(C4CC4)CC3)ccc12)C1CC1 | inactive: -0.776 | inactive: 0.407 | inactive: 0.607
Cn1c([N+](=O)[O-])cnc1N1CCN(S(C)(=O)=O)C1=O [satranidazole] | inactive: 0.103 | inactive: -0.0762 | inactive: 4.4
COC1CCN(S(=O)(=O)c2c(Cl)cccc2Cl)CC1 | inactive: -0.692 | inactive: -1.67 | inactive: -1.68
CC(C)(Oc1ccc(C(=O)c2ccc(Cl)cc2)cc1)C(=O)NCCS(=O)(=O)O | inactive: -1.98 | inactive: 1.85 | inactive: 1.06
CCCCC(=O)OCC(C)COC(=O)C(C)(C)C (stereo not drawn) | inactive: -0.244 | inactive: 0.681 | inactive: 0.148
CC(C)C(=O)N1Cc2ccccc2CC2(CCCCN2CC2CCOCC2)C1 (stereo not drawn) | inactive: -1.25 |  | inactive: 0.904
CC(C)=NNc1nc2c(N)ncnc2n1[C@@H]1O[C@H](CO)[C@@H](O)[C@H]1O | inactive: -0.497 | inactive: -0.597 | inactive: -2.44
O=c1ccn(C2OC(CO)C(O)C2O)c(=O)[nH]1 (stereo not drawn) [uridine, RepliGen] | inactive: -1.33 |  | active: 6.44
O=c1ccn(C2OC(CO)C(O)C2O)c(=O)[nH]1 (stereo not drawn) [uridine] |  | inactive: 0.161 | 
CC[C@H](C)[C@H](NC(=O)[C@H](CC(C)C)NC(=O)[C@H](CC(N)=O)NC(=O)[C@H](C)NC(=O)[C@H](Cc1ccccc1)NC(=O)[C@H](CC(N)=O)NC(=O)[C@H](CC(C)C)NC(=O)[C@H](CC(C)C)NC(=O)[C@@H](N)CO)C(=O)N[C@@H](CCC(=O)O)C(=O)O [Oxynor] | inactive: 0.709 | inactive: 0.628 | inactive: 1.78
O=C(O)c1ccc2c(c1)C=C(n1ccnc1)CC2 [rolafagrel] | inactive: -1.61 | inactive: -1.81 | inactive: 0.89
[S]=[Mo](=[S])([S-])[S-] [choline tetrathiomolybdate] | inactive: -1.37 | inactive: 1.25 | inactive: 0.249
CCCCCCC(C(=O)O)n1ccc2cc(-c3ccccc3-c3nn[nH]n3)ccc21 (stereo not drawn) | inactive: -0.418 | inactive: -0.145 | inactive: 0.0194
C[C@H](NC(=O)[C@@H](Cc1c[nH]c2ccccc12)NC(=O)[C@@H](N)Cc1cnc[nH]1)C(=O)N[C@@H](Cc1c[nH]c2ccccc12)C(=O)N[C@H](Cc1ccccc1)C(=O)N[C@@H](CCCCN)C(N)=O | inactive: -1.16 | inactive: -1.42 | inactive: 0.228
CN(C)CCCNC(=O)/C(=C/CCCCC(=O)NO)COc1cccc2ccccc12 | inactive: 2.86 | active: 21.4 | active: 25.7
c1ccc(OCc2ccc(CCCN3CCOCC3)cc2)cc1 [Erbocain] | inactive: -1.24 | inactive: -0.339 | inactive: 1.36
CC(C)(CO)C(O)C(=O)NCCCO (stereo not drawn) [dexpanthenol, Bayer] | inactive: -0.0452 |  | inactive: 0.0881

SMILES | TEAD-luciferase reporter activity (compound concentration: 200 nM) | TEAD-luciferase reporter activity (compound concentration: 2 uM) | TEAD-luciferase reporter activity (compound concentration: 10 uM)
CC(C)(CO)C(O)C(=O)NCCCO (stereo not drawn) [dexpanthenol] |  | inactive: -1.08 | 
O=C(NN1CCCCC1)c1nn(-c2ccc(Cl)cc2Cl)c(-c2ccc(C#Cc3ccc(C(F)(F)F)cc3)s2)c1CNS(=O)(=O)N1CCCC1 | inactive: -0.57 | inactive: -0.915 | inactive: -0.726
C[N+](C)(C)CC(O)C[N+](C)(C)C | inactive: -0.392 | inactive: -0.177 | inactive: -0.359
CC1(C)C(=O)NC2=Nc3ccc(Cl)c(Cl)c3CN21 | inactive: -0.653 | inactive: 0.0493 | inactive: -1.17
CC(C(=O)O)c1ccc(-c2ccsc2)cc1 (stereo not drawn) | inactive: -0.303 | inactive: -0.5 | inactive: -1.46
O=C(O)c1ccccc1C(=O)N1CCSC1 [Nesosteine sodium] | inactive: 1.13 | inactive: -1.7 | inactive: -0.9
COc1cccc(C#CCO/N=C2\CN3CC[C@@H]2C3)c1 | inactive: 0.193 | inactive: 0.629 | active: 8.51
CC(C)c1ccc(C(=O)NCCOc2ccc(C(=O)O)cc2)cc1 | inactive: 0.0521 | inactive: -1.5 | inactive: 1.62
CN1CCC/C1=N\C(=N\c1ccccc1)N1CCCC1 | inactive: -0.209 |  | inactive: -0.453
S=c1[nH]cc(CC2CC=CC2)[nH]1 | inactive: -2.21 | inactive: 0.503 | inactive: -1.14
O=c1c(-c2ccc(O)cc2)coc2c([C@@H]3O[C@H](CO)[C@@H](O)[C@H](O)[C@H]3O)c(O)ccc12 [Kakonein] | inactive: -1.59 | inactive: -1.25 | inactive: -0.695
S=C(N/N=C1/CCCc2cccnc21)N1CCN(c2ccccn2)CC1 | inactive: -0.388 | inactive: 1.64 | active: 5.2
CN1CC(O)C2=C/C(=N\NC(N)=O)C(=O)C=C21 (stereo not drawn) | inactive: -1.27 | inactive: -1.21 | inactive: 0.0678
COc1ccc2cc([C@@H](C)CO)ccc2c1 | inactive: -1.27 | inactive: -0.886 | inactive: 1.59
c1cc(CN2CCCNCCNCCCNCC2)ccc1CN1CCCNCCNCCCNCC1 [Plerixafor hydrochloride] | inactive: 0.44 | inactive: -1.26 | inactive: 1.26
CCCN1CCCC12Cc1ccccc1CN(C(=O)CC)C2 (stereo not drawn) | inactive: 1.7 |  | active: 6.82
Cc1ccc(NC(=O)C(O)C(O)C(O)CO)cc1C (stereo not drawn) | inactive: 0.805 | inactive: -0.404 | inactive: -2.68
Cn1c(=O)[nH]c2ncn(CC(C)(C)C)c2c1=O | inactive: -0.915 | inactive: 0.159 | inactive: 0.856
CC(=O)Nc1ccc(OC2(C)OC(=O)c3ccccc3O2)cc1 (stereo not drawn) | inactive: 0.176 | inactive: -0.487 | inactive: -1.17

Single records (already shown).
CC(C(=O)O)c1ccc(-c2ccsc2)cc1 (stereo not drawn) is entered as TEAD-luciferase reporter activity (compound concentration: 200 nM): inactive: -0.303; TEAD-luciferase reporter activity (compound concentration: 2 uM): inactive: -0.5; TEAD-luciferase reporter activity (compound concentration: 10 uM): inactive: -1.46
C[N+](C)(C)CC(O)C[N+](C)(C)C is entered as TEAD-luciferase reporter activity (compound concentration: 200 nM): inactive: -0.392; TEAD-luciferase reporter activity (compound concentration: 2 uM): inactive: -0.177; TEAD-luciferase reporter activity (compound concentration: 10 uM): inactive: -0.359
S=C(N/N=C1/CCCc2cccnc21)N1CCN(c2ccccn2)CC1 is entered as TEAD-luciferase reporter activity (compound concentration: 200 nM): inactive: -0.388; TEAD-luciferase reporter activity (compound concentration: 2 uM): inactive: 1.64; TEAD-luciferase reporter activity (compound concentration: 10 uM): active: 5.2

(next part)

SMILES | TEAD-luciferase reporter activity (compound concentration: 200 nM) | TEAD-luciferase reporter activity (compound concentration: 2 uM) | TEAD-luciferase reporter activity (compound concentration: 10 uM)
O=C(O)CCc1cc(I)c(Oc2ccc(O)c(I)c2)c(I)c1 [Triiodothyropropionic acid] | inactive: -0.784 | inactive: -0.244 | inactive: -0.173
O=C(C[n+]1ccsc1)c1ccccc1 | inactive: 0.0317 | inactive: 0.428 | inactive: 0.53
CSc1ccc2c(c1)N(CCC1CCCCN1C)c1ccccc1S2 (stereo not drawn) [thioridazine] |  | inactive: 2.26 | 
CSc1ccc2c(c1)N(CCC1CCCCN1C)c1ccccc1S2 (stereo not drawn) | inactive: -1.43 |  | inactive: -1.67
Nc1nccc(Oc2ccc(NC(=O)c3cn(COP(=O)(O)O)cc(-c4ccc(F)cc4)c3=O)cc2F)c1Cl [Metatinib tromethamine] | inactive: -1.28 | inactive: -1.2 | inactive: 0.215
CC(C)(Oc1ccc(Cl)cc1)C(=O)NC(=O)NCN1CCOCC1 | inactive: -0.069 | inactive: -0.185 | inactive: 1.86
CC(C)CC[C@@H](O)[C@@H](C)[C@H]1CC[C@H]2[C@@H]3CC=C4C[C@@H](O)CC[C@]4(C)[C@H]3CC[C@]12C [22(R)-Hydroxycholesterol] | inactive: -0.104 | inactive: 0.392 | inactive: 2.19
Cc1nc(C(=O)N2CCCC[C@H]2CNC(=O)c2cccc3occc23)c(-c2ccc(F)cc2)s1 | inactive: -0.349 | inactive: 2.13 | inactive: -0.735
CC(=O)Nc1ccc(C(=O)O)cc1 | inactive: -1.62 | inactive: -0.298 | inactive: 1.21
Cc1cnc(C(=O)O)c[n+]1[O-] [acipimox] | inactive: -1 | inactive: -2.29 | inactive: -1.51
CCCC1O[C@@H]2C[C@H]3[C@@H]4CCC5=CC(=O)C=C[C@]5(C)[C@H]4[C@@H](O)C[C@]3(C)[C@]2(C(=O)CO)O1 (stereo partly drawn) [Budesonide] | inactive: 0.211 | inactive: -0.881 | inactive: 0.513
CC(=O)C(=Cc1ccccc1)C(C)=O | inactive: -1.02 | inactive: -0.917 | inactive: -1.13
CC1CC(=O)NN=C1c1ccc(N2CCN(C(=N)NCCCc3c[nH]cn3)CC2)c([N+](=O)[O-])c1 (stereo not drawn) | inactive: 2.29 | inactive: -1.11 | inactive: 0.0225
COc1cc(N2CCN(C(=O)Cn3nc(-c4ncc[nH]4)c4cccnc43)CC2)ccc1Cl | inactive: 0.425 | inactive: -0.665 | inactive: -0.273
CC(C(=O)OCCN1CCN(CCOC(=O)C(C)c2cccc3ccccc23)CC1)c1cccc2ccccc12 (stereo not drawn) | inactive: -0.43 | inactive: -1.26 | inactive: -0.524
Cc1ccc(CCN2CCCCC23Cc2ccccc2CN(C(=O)CCC(=O)O)C3)cc1 (stereo not drawn) | inactive: 1.86 |  | inactive: -0.27
CCN1CCCC1CNS(=O)(=O)c1cc(Cl)c(N)cc1OC (stereo not drawn) [lorapride] | inactive: 1.68 | inactive: -0.678 | inactive: -1.42
C#Cc1cnc2nc(O)n(C(CC)CC)c2n1 [tirasemtiv] | inactive: -2.16 | inactive: 1.97 | inactive: 2.3
O=C1NOCC1/N=C/c1ccc(/C=N/C2CONC2=O)cc1 (stereo not drawn) | inactive: -1.08 | inactive: -1.2 | inactive: -0.727
